Values of other authors in patent US8440210B2, “Stabilized pharmaceutical product” (Takeda GmbH, priority 2003, dated 2013).

Conditions: drug substance

COc1ccc(CC(C)NCC(O)c2ccc(O)c(NC=O)c2)cc1 (stereo not shown) [Formoterol]
stable at ambient conditions for up to: up to two
